Laboratory results as given in the supplement of paper PMC12823440, “Inhibitors supercharge kinase turnover through native proteolytic circuits” (Nature, 2025).
Counter-ions that a name gives are not always drawn. This is one part of the list. The calls rarely recur for the same compound in another form.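 Kinases were expressed as nanoluciferase fusions in K562 cells and luminescence was read every 4 h between 2 and 18 h as percent of control, DMSO set to 100% and a positive control to 0%. A time point counts as decreased when the signal drops significantly (2 sigma). The hit call is the authors' own, does not follow from the count of time points alone, and its rule is not shown.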

These molecules were tested against EGFR (UniProt P00533) (assay: kinase-Nluc reporter destabilization hit call (1 = scored as downregulated) (binary); higher = compound decreases kinase abundance). Settings: 10 µM; K562; 2-18 h.

kinase-Nluc reporter destabilization hit call, inactive:
COc1cc2c(-c3cnn4cc(N5CCC(N6CCN(C)CC6)CC5)cnc34)ccnc2cc1F [ALK2-IN-4 (succinate)] 0
C#Cc1cccc(Nc2ncnc3cc(OCCOC)c(OCCO)cc23)c1 [Desmethyl Erlotinib] 0
N=C(N)NC(=O)c1nc(Cl)c(N)nc1N [Amiloride (hydrochloride)] 0
N#CC[C@H](C1CCCC1)n1cc(-c2ncnc3[nH]ccc23)cn1 [Ruxolitinib (phosphate)] 0
CC(=O)c1c(C)c2cnc(Nc3ccc(N4CCNCC4)cn3)nc2n(C2CCCC2)c1=O [Palbociclib (monohydrochloride)] 0
O=C(O)c1ccc2c(c1)nc(Nc1cccc(Cl)c1)c1ccncc12 [Silmitasertib (sodium salt)] 0
COc1ccnc(C[S+]([O-])c2nc3cc(-n4cccc4)ccc3[nH]2)c1C (stereo unspecified) [Ilaprazole (sodium)] 0
CC(C)NC[C@@H](C(=O)N1CCN(c2ncnc3c2[C@H](C)C[C@H]3O)CC1)c1ccc(Cl)cc1 [Ipatasertib (dihydrochloride)] 0
CC(=O)c1c(C)c2cnc(Nc3ccc(N4CCNCC4)cn3)nc2n(C2CCCC2)c1=O [Palbociclib (isethionate)] 0
O=C(c1ccc(F)c(F)c1Nc1ccc(I)cc1F)N1CC(O)([C@@H]2CCCCN2)C1 [Cobimetinib (hemifumarate)] 0
COC(=O)[C@H](CC(C)C)NC(=O)c1ccc(NC[C@@H](N)CS)cc1-c1cccc2ccccc12 0

A portion from further up, for reference:
kinase-Nluc reporter destabilization hit call, inactive:
COc1cc2c(-c3cnn4cc(N5CCC(N6CCN(C)CC6)CC5)cnc34)ccnc2cc1F [ALK2-IN-4 (succinate)] 0
C#Cc1cccc(Nc2ncnc3cc(OCCOC)c(OCCO)cc23)c1 [Desmethyl Erlotinib] 0
